Test results published in the supplement of paper PMC12067093, “Discovery and optimisation of a covalent ligand for TRIM25 and its application to targeted protein ubiquitination” (Chemical Science, 2025).
This is one part of the list.

Compound: CC1Cc2ccccc2N1C(=O)C1CCCN(C1)C(=O)CCl (mixture of isomers) [TRIM25 ligand 11 (diastereomer mixture)]
Test: probe-labelled cysteine peptide fold change vs DMSO (competition) (log2 fold change); higher = less target engagement (more negative = stronger competition)
Conditions: THP-1, incubation time: 4 h
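Further: competitive chemoproteomic profiling in live THP-1 cells with an iodoacetamide desthiobiotin (IA-DTB) probe, comparing probe-labelled peptide intensities in compound-treated cells against DMSO-treated controls.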

| Target | probe-labelled cysteine peptide fold change (10 µM) | probe-labelled cysteine peptide fold change (50 µM) |
| --- | --- | --- |
| FNDC3A_Q9Y2H6_762_CDITTAPGPPDQCKPPQVTCR (UniProt Q9Y2H6) | -0.0387 | 0.0709 |
| G6PD_P11413_385_LQFHDVAGDIFHQQCK (UniProt P11413) | 0.0035 | 0.0691 |
| FRY_Q5TBA9_120_GEDPQFDQVISSMSSLSEYCLPSILR (UniProt Q5TBA9) | 0.113 | -0.528 |
| FHL2_Q14192_275_GFLTERDDILCPDCGK (UniProt Q14192) | -0.0813 | -0.0756 |
| FLNB_O75369_2115_APSVATVGSICDLNLK (UniProt O75369) | -0.0796 | -0.0239 |
| FUBP3_Q96I24_125_IQIASESSGIPERPCVLTGTPESIEQAKR (UniProt Q96I24) | -0.00226 | 0.228 |
| FN3KRP_Q9HA64_11_ELGCSSVR (UniProt Q9HA64) | -0.0658 | -0.015 |
| FKBP3_Q00688_133_KGDVVHCWYTGTLQDGTVFDTNIQTSAK (UniProt Q00688) | -0.197 | -0.269 |
| FGD3_Q5JSP0_284_QEVCGNLTLQHHMLEPVQR (UniProt Q5JSP0) | 0.0112 | -0.0514 |
| FSCN1_Q16658_61_KQIWTLEQPPDEAGSAAVCLR (UniProt Q16658) | -0.189 | -0.212 |
| FKBP5_Q13451_103+107_KGEICHLLCKPEYAYGSAGSLPK (UniProt Q13451) | -0.0629 | -0.0494 |
| FGD4_Q96M96_234_LDLLDQVFYCK (UniProt Q96M96) | -0.0315 | 0.174 |
| FUBP3_Q96I24_366_CGLVIGK (UniProt Q96I24) | -0.0888 | 0.0606 |
| FTO_Q9C0B1_249_SAVAVYSYSCEGPEEESEDDSHLEGRDPDIWHVGFK (UniProt Q9C0B1) | -0.144 | -0.21 |
| GABPA_Q06546_388_YYYDGDMICK (UniProt Q06546) | 0.0462 | 0.0814 |
| FTH1_P02794_131_NDPHLCDFIETHYLNEQVK (UniProt P02794) | 0.00582 | 0.283 |
| GABPA_Q06546_61_LQCSLDAHEICLQDIQLDPER (UniProt Q06546) | -0.0937 | -0.107 |
| FHL1_Q13642_7+10_FDCHYCR (UniProt Q13642) | 0.144 | 0.119 |
| FLNB_O75369_622_EPGEYAVHIMCDDEDIK (UniProt O75369) | 0.029 | -0.161 |
| FHOD1_Q9Y613_164_DLVPEFVHSEGLSCLIR (UniProt Q9Y613) | 0.152 | 0.203 |
| FYCO1_Q9BQS8_882_CSSEEAQLEHAELQEQLHR (UniProt Q9BQS8) | 0.112 | 0.048 |
| FSCN1_Q16658_334_NASCYFDIEWR (UniProt Q16658) | 0.0164 | 0.151 |

| Target | probe-labelled cysteine peptide fold change (10 µM) | probe-labelled cysteine peptide fold change (50 µM) |
| --- | --- | --- |
| FSCN1_Q16658_226_VAFRDCEGR (UniProt Q16658) | -0.335 | -0.264 |
| FUBP3_Q96I24_109_IQAESGCK (UniProt Q96I24) | 0.00832 | 0.192 |
| FIG4_Q92562_839_NSQQPCSR (UniProt Q92562) | 0.0248 | -0.4 |
| FMNL1_O95466_787_EQRPMEELSEEDRFMLCFSR (UniProt O95466) | -0.0985 | -0.177 |
| FRY_Q5TBA9_2404_LVHVLSLCGQEVGLSK (UniProt Q5TBA9) | -0.00377 | -0.1 |
| FN1_P02751_374_TFYSCTTEGR (UniProt P02751) | 0.108 | -0.294 |
| FLII_Q13045_933_LPEEEFGHFYTQDCYVFLCR (UniProt Q13045) | 0.114 | 0.154 |
| FLAD1_Q8NFF5_236_LHYGTDPCTGQPFR (UniProt Q8NFF5) | 0.143 | 0.0569 |
| FIG4_Q92562_652_HLPLPYDEVICAVNLK (UniProt Q92562) | 0.159 | 0.132 |
| GAK_O14976_595_SGCRPFCEVYVGDER (UniProt O14976) | -0.0475 | -0.0504 |
| FKRP_Q9H9S5_191_CDALDGDAVVLLR (UniProt Q9H9S5) | 0.0347 | -0.00253 |
| FN1_P02751_231_CNDQDTR (UniProt P02751) | 0.287 | -0.0686 |
| FTO_Q9C0B1_171_ANEDAVPLCMSADFPR (UniProt Q9C0B1) | -0.0856 | -0.483 |
| FRY_Q5TBA9_2174_IAQVCLEEK (UniProt Q5TBA9) | 0.134 | -0.0684 |
| FLAD1_Q8NFF5_236_LHYGTDPCTGQPFRFPLVSVR (UniProt Q8NFF5) | -0.0344 | -0.0155 |
| FKBP4_Q02790_396_TQLAVCQQR (UniProt Q02790) | 0.0681 | 0.0787 |
| FLAD1_Q8NFF5_409_DCTALLHLFHAAVQR (UniProt Q8NFF5) | -0.000326 | 0.348 |
| G6PD_P11413_269_DVMQNHLLQMLCLVAMEK (UniProt P11413) | 0.246 | 0.175 |
| FLII_Q13045_1067_TNGSALCTR (UniProt Q13045) | -0.0286 | 0.125 |
| GABPB1_Q06547_331_RQCIEIIENR (UniProt Q06547) | 0.0238 | -0.198 |
| FSCN1_Q16658_397_GEHGFIGCR (UniProt Q16658) | 0.015 | 0.047 |
| FKBP9_O95302_47_FVPDECPR (UniProt O95302) | 0.0656 | 0.0999 |

| Target | probe-labelled cysteine peptide fold change (10 µM) | probe-labelled cysteine peptide fold change (50 µM) |
| --- | --- | --- |
| FLNB_O75369_450+455_SPFVVQVGEACNPNACR (UniProt O75369) | -0.148 | -0.038 |
| FHL1_Q13642_150_GEDFYCVTCHETK (UniProt Q13642) | 0.0477 | 0.0277 |
| FRYL_O94915_1042_CHFSALVANIIQNVPVHQR (UniProt O94915) | 0.0176 | -0.0237 |
| FOXRED1_Q96CU9_239_KVQSLGVLFCQGEVTR (UniProt Q96CU9) | 0.161 | 0.0629 |
| FHL1_Q13642_150+153_GEDFYCVTCHETK (UniProt Q13642) | -0.133 | -0.0337 |
| FLII_Q13045_933+938_LPEEEFGHFYTQDCYVFLCR (UniProt Q13045) | -0.148 | 0.135 |
| FHOD1_Q9Y613_31_VQYLEDTDPFACANFPEPR (UniProt Q9Y613) | -0.209 | 0.138 |
| GAB2_Q9UQC2_303_TPSNTLCR (UniProt Q9UQC2) | -0.089 | -0.0741 |
| FRRS1_Q6ZNA5_107_NAEDLNGPPIGSFTLIDSEVSQLLTCEDIQGSAVSHR (UniProt Q6ZNA5) | 0.66 | 0.341 |
| FTO_Q9C0B1_308_ISWDIETPGLAIPLHQGDCYFMLDDLNATHQHCVLAGSQPR (UniProt Q9C0B1) | 0.0718 | 0.149 |
| FLNB_O75369_1952_DEPCLLK (UniProt O75369) | 0.159 | 0.216 |
| FLT3_P36888_35_CVLINHK (UniProt P36888) | -0.123 | -0.193 |
| FRY_Q5TBA9_1809_AFGPLWCHEDITPK (UniProt Q5TBA9) | -0.0694 | -0.0471 |
| FXR2_P51116_151_VTMAVPEDLREACSNENVHK (UniProt P51116) | -0.0855 | -0.0345 |
| FNBP4_Q8N3X1_603_GWSCHWDR (UniProt Q8N3X1) | 0.209 | 0.026 |
| FPGT_O14772_424_CSVAPGSVVEYSR (UniProt O14772) | 0.105 | 0.121 |
| FTO_Q9C0B1_472_TLPADQKPECRPYWEK (UniProt Q9C0B1) | -0.072 | -0.27 |
| FLYWCH2_Q96CP2_132_TEDSGLAAGPPEAAGENFAPCSVAPGK (UniProt Q96CP2) | -0.118 | -0.403 |
| FKBP15_Q5T1M5_809_CEHLLASAK (UniProt Q5T1M5) | -0.0577 | -0.0854 |
| FKBP8_Q14318_227_ECGNAHYQR (UniProt Q14318) | 0.252 | 0.173 |
| FHL1_Q13642_10_FDCHYCR (UniProt Q13642) | -0.0131 | 0.00791 |
| FHL2_Q14192_251_QWHNDCFNCK (UniProt Q14192) | 0.0366 | 0.0232 |

| Target | probe-labelled cysteine peptide fold change (10 µM) | probe-labelled cysteine peptide fold change (50 µM) |
| --- | --- | --- |
| GAB1_Q13480_213_STSSETDCNDNVPSHK (UniProt Q13480) | 0.262 | -0.000977 |
| FLII_Q13045_337_LTNLEEFMAANNNLELVPESLCR (UniProt Q13045) | 0.177 | -0.371 |
| FKBP5_Q13451_340_AVECCDK (UniProt Q13451) | 0.024 | -0.0377 |
| FRA10AC1_Q70Z53_240_DCEESSHKK (UniProt Q70Z53) | -0.0485 | -0.0194 |
| FN1_P02751_401_YSFCTDHTVLVQTR (UniProt P02751) | 0.107 | -0.0413 |
| FTO_Q9C0B1_392_CTDWWCQPMAQLEALWK (UniProt Q9C0B1) | -0.232 | -0.353 |
| FUBP3_Q96I24_125_IQIASESSGIPERPCVLTGTPESIEQAK (UniProt Q96I24) | 0.000109 | 0.149 |
| FLNB_O75369_2431_MDCQETPEGYK (UniProt O75369) | 0.0123 | 0.0204 |
| FNBP1_Q96RU3_130_AQQHIETCWK (UniProt Q96RU3) | -0.0634 | -0.014 |
| G6PD_P11413_13_TQVCGILR (UniProt P11413) | 0.333 | 0.145 |
| FLII_Q13045_560_ACSAIHAVNLR (UniProt Q13045) | 0.0807 | 0.0422 |
| FN1_P02751_141_CHEGGQSYK (UniProt P02751) | 0.158 | -0.144 |
| FLNB_O75369_2154_NSHCVR (UniProt O75369) | 0.172 | 0.148 |
| FOXK1_P85037_665_VCEVGPK (UniProt P85037) | 0.0246 | -0.141 |
| FKBP7_Q9Y680_104_GLDIAMTDMCPGEK (UniProt Q9Y680) | 0.00783 | -0.0524 |
| FLII_Q13045_808_LGQELCGMLHRPR (UniProt Q13045) | -0.202 | -0.125 |
| FIP1L1_Q6UN15_216_ITAEDCTMEVTPGAEIQDGR (UniProt Q6UN15) | 0.161 | -0.0208 |
| GABPB1_Q06547-3_355_SLLPGVLCR (UniProt Q06547) | -0.0341 | -0.00581 |
| FLOT1_O75955_85_EMLAAACQMFLGK (UniProt O75955) | -1.02e-05 | 0.235 |
| FGG_P02679_35_DNCCILDER (UniProt P02679) | 0.542 | 0.22 |
